# Measured values: the supplement of paper PMC5949888
# Most values lie at the floor of the assay. Slopes are relative: functional sequences can read slightly below zero.
# System: Saccharomyces cerevisiae PS128 hsf1 delta, HSF1(1-493) fusion
# Assay: growth estimate (transactivation domain function in HSF1 fusion, heat-shock survival) (a.u. (slope of normalised read count over time)); higher = stronger growth at 37°C, i.e. more transactivation activity
# Settings: library: random library
row,Substance,growth estimate
1,GVPPKSSQATVIRV,< -0.25
2,SVILSKSVCPRHRREYSGVL,< -0.25
3,CMDWHSID,< -0.25
4,LTSACSSYVFFSGPAMPITA,< -0.25
5,ISLNVAVLGTGRCVRDMTSI,< -0.25
6,LWLRETNTVCQLNDQALWWH,-0.237
7,ADWQVGLIQ,< -0.25
8,VWQG,< -0.25
9,GEGSAGAQHGSRICAGSVI,< -0.25
10,VLEQNFLRLDWH,< -0.25
11,IARGAIFN,< -0.25
12,QRLHGIAGKYLVPGPKLLTR,< -0.25
13,CSRAS,< -0.25
14,RQCCGGSFLLMLAYSI,< -0.25
15,ARL,< -0.25
16,NRDA,< -0.25
17,AHP,< -0.25
18,IPTCPHYSTRTADRREFVKK,< -0.25
19,LPVSASRLGKRYDGSRGHPG,< -0.25
20,EYEDYLPVAEVGMSCEVCSS,< -0.25
21,RGVLWRRYLDRSSLK,< -0.25
22,GAENVDRLYSVPASIVGLPR,< -0.25
23,FTGQR,< -0.25
24,IMSQ,< -0.25
25,PHCSTRSW,< -0.25

row,Substance,growth estimate
1,GIIRS,< -0.25
2,GEPRRCRGQVSCPYGANSSV,< -0.25
3,DLLLLGLTRCH,< -0.25
4,KWCFMEIWSREPNLRGEPGP,< -0.25
5,LSRACDYHSGGLTATT,< -0.25
6,VPVLLTCDLKVGILCSGQAR,< -0.25
7,NRYTWE,< -0.25
8,VVLEFLGSSNCF,< -0.25
9,HGRDWTCLKSSSVHMITSDW,< -0.25
10,NSAHET,< -0.25
11,VCLPEKVYMLR,< -0.25
12,AAIAGRGSPENLYLQVP,< -0.25
13,HAIIDN,< -0.25
14,EHA,< -0.25
15,LTIGW,< -0.25
16,VCHLDGCLVLNQVPRVDSKP,< -0.25
17,PTAVGSRYIHFLSQFF,< -0.25
18,HCLGAYYAYPRFTMLISFHV,< -0.25
19,GSM,< -0.25
20,ASIPRGKRGTGTDVRLCYEA,< -0.25
21,PSKDKVFPVYWFIGLV,< -0.25
22,RKRGHHLMYSVPPRVLV,< -0.25
23,LASLRLPFCVHRTVTTRTAT,< -0.25
24,AGNKTGRYVGCTGGFRYERS,< -0.25
25,DAANSLCFRPFICRLKGLGR,< -0.25

row,Substance,growth estimate
1,FTTAVERRVSLSNP,< -0.25
2,AVIVY,-0.243
3,RSELVFRSANIWRRNVVIRG,< -0.25
4,EGPRQNSGASLRIGWNTTVT,< -0.25
5,WSVAEA,< -0.25
6,VLVSRPFMWPHWKARGEVSS,< -0.25
7,TFRWFPEGVQPLWNVSSRSL,< -0.25
8,RLSGSEVALRVWGGN,< -0.25
9,AEGRIELTR,< -0.25
10,FSPDIHVIAGARLGLSSPEE,< -0.25
11,RNGGIQIWNSSSRAIPAGLR,< -0.25
12,RAN,< -0.25
13,SQRLLLRS,< -0.25
14,DLIYRVTTTSHLHW,< -0.25
15,SGRKLHAPQAPKSEAGSVAP,< -0.25
16,INAVQCRPCVQRRE,< -0.25
17,PIYADCVG,-0.191
18,TSRIWSTGMRPARESVLVLS,< -0.25
19,AEESAFRGVPYR,< -0.25
20,PVGIIFRNITQLSVYSQGMT,< -0.25
21,CRAPGIRGWLPEDRPQEAAG,< -0.25
22,RQVSSWWEDKTPYAKVSGRG,< -0.25
23,AGDFI,< -0.25
24,AGRKD,< -0.25
25,LRTM,< -0.25
